# Measured values from patent publication US12419839B2, “Methods and compositions for targeted delivery of protein fragments” (Signablok, Inc., priority 2009, dated 2025).
# Part of at least one peptide drawing is inferred or uncertain, most often the ends. Where no end group is shown, it is not given here.
# System: AsPC-1, BxPC-3, and Capan-1 tumor xenografts
# Assay: pancreatic cancer xenograft mouse model
# Type: in vivo, mice
# Settings: ip once daily 5 times per week; free GF9 25 mg/kg, GF9-HDL 2.5 mg/kg
sequence,measurement,value
"GLRILLLKV [free GF9, GLRILLLKV]",tumor growth,suppresses tumor growth
